This is one part of the list.
Compound: Cc1cc(ccc1-c1ccccc1)C(=O)N1CCCN(CC1)C(=O)CCl [compound 10]
Test: probe-labelled cysteine peptide fold change vs DMSO (competition) (log2 fold change); higher = less target engagement (more negative = stronger competition)
Conditions: THP-1, incubation time: 4 h
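Note: competitive profiling in live THP-1 cells: cysteine peptides tagged with an iodoacetamide desthiobiotin (IA-DTB) probe, intensity after compound treatment relative to DMSO-treated cells.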

Protein sequences, listed by entry. Tags and fused reporters are not part of them. Lines headed by an entry give the natural chain unless they say otherwise; changes in a name come on top.
UniProt P46020: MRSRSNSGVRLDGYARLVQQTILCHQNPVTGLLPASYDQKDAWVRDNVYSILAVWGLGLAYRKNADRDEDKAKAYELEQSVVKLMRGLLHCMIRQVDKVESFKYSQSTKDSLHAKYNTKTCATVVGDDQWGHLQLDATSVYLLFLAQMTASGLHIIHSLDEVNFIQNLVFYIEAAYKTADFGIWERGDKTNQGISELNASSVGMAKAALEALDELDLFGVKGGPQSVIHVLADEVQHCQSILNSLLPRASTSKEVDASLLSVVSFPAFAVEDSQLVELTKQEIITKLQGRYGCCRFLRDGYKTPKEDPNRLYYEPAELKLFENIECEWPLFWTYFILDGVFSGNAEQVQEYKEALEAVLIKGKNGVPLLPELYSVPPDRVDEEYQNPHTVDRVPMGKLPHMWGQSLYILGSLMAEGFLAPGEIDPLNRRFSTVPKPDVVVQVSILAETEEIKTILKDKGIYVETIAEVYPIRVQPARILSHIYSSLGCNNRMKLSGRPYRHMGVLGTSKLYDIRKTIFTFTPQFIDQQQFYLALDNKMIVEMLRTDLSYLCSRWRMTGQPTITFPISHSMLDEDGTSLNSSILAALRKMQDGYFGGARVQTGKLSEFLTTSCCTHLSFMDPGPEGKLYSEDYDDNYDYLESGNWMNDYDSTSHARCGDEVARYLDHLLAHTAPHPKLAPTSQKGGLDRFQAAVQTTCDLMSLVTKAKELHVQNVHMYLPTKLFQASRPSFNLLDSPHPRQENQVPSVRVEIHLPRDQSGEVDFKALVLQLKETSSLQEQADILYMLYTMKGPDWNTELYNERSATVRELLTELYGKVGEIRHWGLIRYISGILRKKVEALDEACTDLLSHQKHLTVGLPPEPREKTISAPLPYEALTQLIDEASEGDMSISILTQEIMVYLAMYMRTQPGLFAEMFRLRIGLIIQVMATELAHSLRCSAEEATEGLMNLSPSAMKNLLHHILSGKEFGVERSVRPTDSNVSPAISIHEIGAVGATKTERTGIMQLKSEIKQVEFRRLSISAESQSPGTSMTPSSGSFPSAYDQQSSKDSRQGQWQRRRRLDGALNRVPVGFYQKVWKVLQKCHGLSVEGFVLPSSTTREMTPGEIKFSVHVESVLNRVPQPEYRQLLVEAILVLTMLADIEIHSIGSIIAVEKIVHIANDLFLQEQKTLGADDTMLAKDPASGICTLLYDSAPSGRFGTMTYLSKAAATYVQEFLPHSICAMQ
UniProt P42356, whole entry, looked up: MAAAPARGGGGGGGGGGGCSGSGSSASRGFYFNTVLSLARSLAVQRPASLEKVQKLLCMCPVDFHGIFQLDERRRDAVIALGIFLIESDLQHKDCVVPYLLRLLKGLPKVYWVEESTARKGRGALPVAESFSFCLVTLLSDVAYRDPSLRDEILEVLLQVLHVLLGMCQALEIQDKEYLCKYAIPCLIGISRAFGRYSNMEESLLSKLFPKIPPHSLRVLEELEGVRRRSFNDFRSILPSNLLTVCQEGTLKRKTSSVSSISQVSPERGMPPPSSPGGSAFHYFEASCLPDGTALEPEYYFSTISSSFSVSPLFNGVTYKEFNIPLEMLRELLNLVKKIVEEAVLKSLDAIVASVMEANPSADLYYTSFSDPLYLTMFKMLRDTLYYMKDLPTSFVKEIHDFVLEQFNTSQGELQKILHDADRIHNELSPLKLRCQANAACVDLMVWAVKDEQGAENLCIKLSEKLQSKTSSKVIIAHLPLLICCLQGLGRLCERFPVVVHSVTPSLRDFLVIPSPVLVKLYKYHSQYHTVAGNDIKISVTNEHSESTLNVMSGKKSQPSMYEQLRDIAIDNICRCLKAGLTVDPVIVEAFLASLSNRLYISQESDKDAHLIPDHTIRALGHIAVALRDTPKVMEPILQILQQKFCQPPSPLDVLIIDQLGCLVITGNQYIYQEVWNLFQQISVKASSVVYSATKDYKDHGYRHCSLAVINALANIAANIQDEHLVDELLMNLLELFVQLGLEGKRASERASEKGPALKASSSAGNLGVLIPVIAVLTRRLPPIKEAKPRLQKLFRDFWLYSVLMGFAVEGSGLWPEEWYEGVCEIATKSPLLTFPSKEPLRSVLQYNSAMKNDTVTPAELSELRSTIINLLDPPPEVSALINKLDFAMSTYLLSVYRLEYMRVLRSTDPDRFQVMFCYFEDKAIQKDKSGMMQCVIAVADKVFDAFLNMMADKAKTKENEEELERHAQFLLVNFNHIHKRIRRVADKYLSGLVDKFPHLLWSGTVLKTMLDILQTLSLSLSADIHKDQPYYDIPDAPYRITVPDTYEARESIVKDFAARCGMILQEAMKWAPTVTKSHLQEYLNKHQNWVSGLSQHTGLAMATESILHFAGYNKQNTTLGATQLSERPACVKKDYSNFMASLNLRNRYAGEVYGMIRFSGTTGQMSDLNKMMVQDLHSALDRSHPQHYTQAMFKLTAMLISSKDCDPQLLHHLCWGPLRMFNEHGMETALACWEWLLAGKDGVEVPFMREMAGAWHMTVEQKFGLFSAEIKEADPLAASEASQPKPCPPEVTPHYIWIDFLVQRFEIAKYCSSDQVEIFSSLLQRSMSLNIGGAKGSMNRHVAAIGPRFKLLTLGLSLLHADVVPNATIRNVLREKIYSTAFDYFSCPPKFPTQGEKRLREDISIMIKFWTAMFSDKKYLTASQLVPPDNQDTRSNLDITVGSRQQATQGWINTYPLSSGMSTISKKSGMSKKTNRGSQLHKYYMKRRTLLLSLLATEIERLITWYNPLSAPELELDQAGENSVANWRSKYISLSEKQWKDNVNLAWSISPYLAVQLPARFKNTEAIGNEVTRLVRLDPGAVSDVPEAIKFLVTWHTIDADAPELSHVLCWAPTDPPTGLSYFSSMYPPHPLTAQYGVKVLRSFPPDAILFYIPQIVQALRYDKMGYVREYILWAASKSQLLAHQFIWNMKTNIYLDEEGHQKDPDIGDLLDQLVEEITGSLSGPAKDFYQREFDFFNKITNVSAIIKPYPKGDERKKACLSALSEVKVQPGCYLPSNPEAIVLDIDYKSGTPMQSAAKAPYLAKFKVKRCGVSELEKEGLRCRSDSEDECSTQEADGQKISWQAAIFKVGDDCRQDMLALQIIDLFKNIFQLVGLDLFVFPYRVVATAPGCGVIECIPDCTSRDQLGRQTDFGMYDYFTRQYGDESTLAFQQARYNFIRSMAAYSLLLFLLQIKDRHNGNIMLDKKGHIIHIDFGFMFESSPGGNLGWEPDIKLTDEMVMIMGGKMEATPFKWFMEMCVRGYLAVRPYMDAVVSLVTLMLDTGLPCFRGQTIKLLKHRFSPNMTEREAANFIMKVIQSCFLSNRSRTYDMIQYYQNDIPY
UniProt O00443: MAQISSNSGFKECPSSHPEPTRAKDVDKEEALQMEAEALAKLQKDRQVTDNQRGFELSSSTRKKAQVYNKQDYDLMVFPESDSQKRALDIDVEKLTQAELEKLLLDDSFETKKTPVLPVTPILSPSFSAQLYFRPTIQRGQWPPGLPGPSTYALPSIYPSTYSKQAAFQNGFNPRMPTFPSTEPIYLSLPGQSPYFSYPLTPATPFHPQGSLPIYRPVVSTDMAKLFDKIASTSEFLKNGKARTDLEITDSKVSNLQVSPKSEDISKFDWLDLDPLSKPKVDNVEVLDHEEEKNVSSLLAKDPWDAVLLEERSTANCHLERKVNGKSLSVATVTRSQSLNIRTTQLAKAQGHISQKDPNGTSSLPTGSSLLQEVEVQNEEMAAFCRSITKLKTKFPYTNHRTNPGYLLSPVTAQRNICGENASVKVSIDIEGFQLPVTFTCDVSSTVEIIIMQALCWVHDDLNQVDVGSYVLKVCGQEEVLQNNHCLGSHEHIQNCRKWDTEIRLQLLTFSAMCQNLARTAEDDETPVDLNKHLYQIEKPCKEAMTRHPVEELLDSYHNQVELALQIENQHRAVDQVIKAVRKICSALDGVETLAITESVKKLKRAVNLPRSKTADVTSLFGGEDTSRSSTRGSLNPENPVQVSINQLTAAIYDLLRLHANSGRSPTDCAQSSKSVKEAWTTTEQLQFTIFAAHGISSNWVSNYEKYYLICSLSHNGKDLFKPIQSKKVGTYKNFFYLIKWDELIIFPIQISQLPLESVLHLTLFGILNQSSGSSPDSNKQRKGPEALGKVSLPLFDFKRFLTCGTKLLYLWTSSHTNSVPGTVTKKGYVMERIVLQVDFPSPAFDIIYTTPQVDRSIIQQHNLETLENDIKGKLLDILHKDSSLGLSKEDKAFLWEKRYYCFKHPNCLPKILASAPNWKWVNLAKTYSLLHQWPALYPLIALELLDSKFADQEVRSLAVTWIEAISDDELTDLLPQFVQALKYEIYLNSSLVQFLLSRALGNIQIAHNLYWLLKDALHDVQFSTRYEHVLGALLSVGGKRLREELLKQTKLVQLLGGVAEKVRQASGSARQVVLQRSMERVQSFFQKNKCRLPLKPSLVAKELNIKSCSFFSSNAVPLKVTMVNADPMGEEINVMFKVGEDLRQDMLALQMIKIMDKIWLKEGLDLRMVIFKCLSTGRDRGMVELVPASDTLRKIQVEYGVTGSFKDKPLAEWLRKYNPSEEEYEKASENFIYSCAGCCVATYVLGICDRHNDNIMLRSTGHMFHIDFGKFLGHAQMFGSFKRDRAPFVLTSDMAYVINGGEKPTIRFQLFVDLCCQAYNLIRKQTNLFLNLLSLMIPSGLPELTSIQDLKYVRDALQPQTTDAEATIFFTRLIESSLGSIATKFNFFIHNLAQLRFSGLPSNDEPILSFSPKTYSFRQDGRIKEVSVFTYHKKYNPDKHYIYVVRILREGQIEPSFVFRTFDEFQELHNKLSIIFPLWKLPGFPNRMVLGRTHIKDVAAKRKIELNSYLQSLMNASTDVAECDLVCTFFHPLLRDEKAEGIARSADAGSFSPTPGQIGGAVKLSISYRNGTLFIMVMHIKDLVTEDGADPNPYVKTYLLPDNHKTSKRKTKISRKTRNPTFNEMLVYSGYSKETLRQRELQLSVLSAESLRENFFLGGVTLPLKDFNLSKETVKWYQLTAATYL
UniProt P00558: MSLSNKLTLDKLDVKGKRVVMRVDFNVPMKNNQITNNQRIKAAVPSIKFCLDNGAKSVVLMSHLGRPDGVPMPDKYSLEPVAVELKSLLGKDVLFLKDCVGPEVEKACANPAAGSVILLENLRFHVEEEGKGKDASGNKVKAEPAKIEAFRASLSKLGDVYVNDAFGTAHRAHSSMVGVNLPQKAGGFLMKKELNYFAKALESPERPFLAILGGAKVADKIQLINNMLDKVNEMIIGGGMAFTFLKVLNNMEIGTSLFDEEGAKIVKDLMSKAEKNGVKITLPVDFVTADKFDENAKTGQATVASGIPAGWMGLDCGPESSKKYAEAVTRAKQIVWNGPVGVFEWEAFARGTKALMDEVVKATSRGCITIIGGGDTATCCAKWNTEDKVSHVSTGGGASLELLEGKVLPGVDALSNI
UniProt P52209: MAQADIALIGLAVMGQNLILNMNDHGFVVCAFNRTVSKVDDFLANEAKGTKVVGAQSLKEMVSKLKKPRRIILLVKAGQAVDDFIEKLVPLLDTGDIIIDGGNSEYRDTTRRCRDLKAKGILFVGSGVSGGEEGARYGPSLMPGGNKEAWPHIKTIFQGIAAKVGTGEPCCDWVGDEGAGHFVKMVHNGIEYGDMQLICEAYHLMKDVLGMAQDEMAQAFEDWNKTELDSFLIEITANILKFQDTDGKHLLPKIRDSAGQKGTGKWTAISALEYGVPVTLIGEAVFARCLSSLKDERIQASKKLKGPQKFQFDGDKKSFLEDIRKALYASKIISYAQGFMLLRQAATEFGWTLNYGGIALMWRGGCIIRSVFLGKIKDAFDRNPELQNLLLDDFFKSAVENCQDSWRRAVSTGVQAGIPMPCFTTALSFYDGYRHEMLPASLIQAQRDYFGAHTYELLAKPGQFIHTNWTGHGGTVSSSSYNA
UniProt Q969N2: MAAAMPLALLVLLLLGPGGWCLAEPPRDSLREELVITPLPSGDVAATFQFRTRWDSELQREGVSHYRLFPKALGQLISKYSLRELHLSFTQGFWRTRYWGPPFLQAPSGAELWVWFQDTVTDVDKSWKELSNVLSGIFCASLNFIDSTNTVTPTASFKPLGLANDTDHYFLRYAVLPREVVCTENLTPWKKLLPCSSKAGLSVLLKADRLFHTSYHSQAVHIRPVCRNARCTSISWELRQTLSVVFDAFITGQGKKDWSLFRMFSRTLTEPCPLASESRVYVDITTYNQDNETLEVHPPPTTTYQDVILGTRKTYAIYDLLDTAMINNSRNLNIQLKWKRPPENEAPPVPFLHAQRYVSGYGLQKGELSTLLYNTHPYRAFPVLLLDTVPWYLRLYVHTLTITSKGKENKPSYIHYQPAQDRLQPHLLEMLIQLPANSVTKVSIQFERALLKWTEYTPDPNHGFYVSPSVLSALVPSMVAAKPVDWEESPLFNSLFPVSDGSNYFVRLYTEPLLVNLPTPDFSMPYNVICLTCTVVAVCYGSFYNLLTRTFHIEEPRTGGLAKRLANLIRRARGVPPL
UniProt Q7RTV0, whole entry, looked up: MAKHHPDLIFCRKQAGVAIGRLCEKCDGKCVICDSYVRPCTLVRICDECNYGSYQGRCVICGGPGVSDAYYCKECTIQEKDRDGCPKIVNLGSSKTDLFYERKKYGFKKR

| Target | probe-labelled cysteine peptide fold change (10 µM) | probe-labelled cysteine peptide fold change (50 µM) |
| --- | --- | --- |
| PECAM1_P16284_572_EQEGEYYCTAFNR (UniProt P16284) | -0.387 | -0.274 |
| PECAM1_P16284_386_SDSGTYICTAGIDK (UniProt P16284) | -0.222 | 0.00631 |
| PHIP_Q8WWQ0_79_HLAPDHLLQICHR (UniProt Q8WWQ0) | 0.286 | 0.187 |
| PFKP_Q01813_718_FTTDDSICVLGISK (UniProt Q01813) | 0.135 | 0.0174 |
| PFKP_Q01813_343_MGVEAVIALLEATPDTPACVVSLNGNHAVR (UniProt Q01813) | -0.174 | -0.138 |
| PHKA1_P46020_844_KVEALDEACTDLLSHQK (UniProt P46020) | -0.252 | 0.0877 |
| PI4KA_P42356_459_DEQGAENLCIK (UniProt P42356) | 0.0831 | 0.0987 |
| PHGDH_O43175_254_ALQSGQCAGAALDVFTEEPPRDR (UniProt O43175) | -0.0942 | 0.023 |
| PIAS1_O75925_228_VNTKPCSLPGYLPPTK (UniProt O75925) | -0.0752 | -0.512 |
| PIK3C2A_O00443_418_NICGENASVK (UniProt O00443) | -0.0686 | -0.555 |
| PHF21A_Q96BD5_514_VYHLDCLDPPLK (UniProt Q96BD5) | 0.215 | 0.335 |
| PHB_P35232_69_GVQDIVVGEGTHFLIPWVQKPIIFDCR (UniProt P35232) | 0.00281 | 0.196 |
| PECAM1_P16284_476+481_DNPTEDVEYQCVADNCHSHAK (UniProt P16284) | -0.179 | -0.426 |
| PIBF1_Q8WXW3_334_CAHEEDRLER (UniProt Q8WXW3) | 0.47 | 1.41 |
| PGK1_P00558_108_ACANPAAGSVILLENLR (UniProt P00558) | -0.0975 | 0.106 |
| PHF10_Q8WUB8_451_TCIICGQPHHEEEMMFCDMCDR (UniProt Q8WUB8) | -0.00578 | 0.164 |
| PGM2_Q96G03_510_ACGKFEISAIR (UniProt Q96G03) | -0.395 | -0.595 |
| PHKA1_P46020_238_GGPQSVIHVLADEVQHCQSILNSLLPR (UniProt P46020) | 0.143 | -0.161 |
| PGK1_P00558_99_DCVGPEVEK (UniProt P00558) | -0.2 | -0.0544 |

| Target | probe-labelled cysteine peptide fold change (10 µM) | probe-labelled cysteine peptide fold change (50 µM) |
| --- | --- | --- |
| PHLPP1_O60346_914_NRLENVPEWVCESR (UniProt O60346) | 0.182 | -0.105 |
| PELO_Q9BRX2_175_GNCSQHDR (UniProt Q9BRX2) | 0.249 | 0.198 |
| PELP1_Q8IZL8_71_SAPHLPGLMCLLR (UniProt Q8IZL8) | -1.13 | -0.883 |
| PGD_P52209_289_CLSSLK (UniProt P52209) | 0.148 | 0.165 |
| PFAS_O15067_318_HVVFTAETHNFPTGVCPFSGATTGTGGR (UniProt O15067) | -0.0528 | 0.119 |
| PGD_P52209_170+171_VGTGEPCCDWVGDEGAGHFVK (UniProt P52209) | -0.303 | -0.985 |
| PHYH_O14832_280+287_AISCHFASADCHYIDVK (UniProt O14832) | -0.0227 | 0.0594 |
| PFKFB3_Q16875_102_KQCALAALR (UniProt Q16875) | -0.00114 | -0.635 |
| PGD_P52209_422_AVSTGVQAGIPMPCFTTALSFYDGYR (UniProt P52209) | 0.251 | 0.148 |
| PIGT_Q969N2_195_LLPCSSK (UniProt Q969N2) | -0.244 | 0.0166 |
| PGP_A6NDG6_193_YLQQPGCLLVGTNMDNRLPLENGR (UniProt A6NDG6) | 0.0297 | -0.192 |
| PEX6_Q13608_761_AVATECSLTFLSVK (UniProt Q13608) | 0.178 | 0.204 |
| PIK3C2A_O00443_317_STANCHLER (UniProt O00443) | -0.0954 | -0.473 |
| PI4KA_P42356_1774_VQPGCYLPSNPEAIVLDIDYK (UniProt P42356) | -0.223 | -0.348 |
| PEX3_P56589_337_IIPIVNGQIHSVCSETPSHFVQDLLTMEQVK (UniProt P56589) | 0.0239 | -0.0998 |
| PEX7_O00628_207_IVIPAHQAEILSCDWCK (UniProt O00628) | -0.193 | -0.386 |
| PICK1_Q9NRD5_145_AILCNDGLVK (UniProt Q9NRD5) | -0.0645 | -0.0103 |
| PHF6_Q8IWS0_128_EKPSQGIYMVYCR (UniProt Q8IWS0) | 0.0527 | -0.0252 |
| PHF5A_Q7RTV0_40_CVICDSYVRPCTLVR (UniProt Q7RTV0) | -0.0813 | 0.0572 |

Look-ups from above:
Entry for PI4KA_P42356_1774_VQPGCYLPSNPEAIVLDIDYK (UniProt P42356) under probe-labelled cysteine peptide fold change (10 µM): -0.223
Entry for PIGT_Q969N2_195_LLPCSSK (UniProt Q969N2) under probe-labelled cysteine peptide fold change (10 µM): -0.244

Source: the supplement of paper PMC12067093, “Discovery and optimisation of a covalent ligand for TRIM25 and its application to targeted protein ubiquitination” (Chemical Science, 2025)
